At least one structure is not confirmed: it was looked up by name or label, or the drawing left a doubt.
Tested on: E-cadherin
Experiment: EMT phenotype, E-cadherin and vimentin protein in 4T1 clones (microscopy, western blot)
Assay type: cell-based, mouse
Settings: R cells; inhibitor 10 μM; E-cadherin staining and western blot
Excerpt: Cells were stained as described previously (Mammoto et al., Cancer Lett. 184:165-170, 2002) and images acquired with a Delta Vision system (Applied Precision, Issaquah, Wash.) equipped with an Axiovert 100 microscope (Carl Zeiss MicroImaging Inc., Shelton, Conn.) and a Photometrics 300 series scientific-grade cooled CCD camera, reading 12-bit images, and using the 63/1.4 NA plan-Neofluar objective. For immunoprecipitation and immunoblotting, tissues were weighed, diced, soaked in ice cold RIPA buffer with 1 mM phenylmethylsulfonyl fluoride (PMSF), 1 μg/ml Aprotinin, 1 mM Na3VO4, 1 nM NaF, homogenized on ice, centrifuged at 10,000 g for 10 minutes at 4° C., and the supernatant fluid collected as total cell lysate. […] Protein bands were detected using SuperSignal® West Pico Chemiluminescent Substrate (Pierce Chemical Co., Rockford, Ill.) (Hanai et al., J. Cell. Biol. 158:529-539, 2002).
To assess the effects of lipocalin 2 on ras-mediated transformation, we chose a syngeneic spontaneously metastasizing murine breast cancer model (4T1 cell line) and accelerated its metastatic potential by introduction of constitutively active mouse H-ras mutant A12 using retrovirus. […] After 72 hours, cells were harvested and analyzed by western blotting. […] After 72 hours, cells were harvested and analyzed by western blotting. […]

O=c1cc(N2CCOCC2)oc2c(-c3ccccc3)cccc12 [LY294002]
effect on ras-induced EMT: partial

Reference: patent US20090305963A1, “Lipocalin 2 for the Treatment, Prevention, and Management of Cancer Metastasis, Angiogenesis, and Fibrosis” (priority 2005, published 2009)
